Laboratory results as given in article PMC4330386 (Nucleic Acids Research, 2015).
No constants are given. Whether binding was seen depends on the method and setting. For some assays here: Binding seen in cells or lysates may run through a third protein. Some results given as binding are weak or reduced against the parent protein; the word gives no strength. For some assays here: Where a sequence is shown, tags or fusion partners need not be part of it. One block for each binder: values may come before it.

How the values were obtained:
[1] = target: T1, Mus81-6XHis (full-length Mus81 subunit) (S. cerevisiae) (UniProt Q04149); assay: co-purification; Mus81 (or derivative) and Mms4 (or Mms4_(Δ40N)) co-expressed in E. coli; phosphocellulose, Ni2+-NTA, glycerol gradient sedimentation (500-mM NaCl); SDS-PAGE, Coomassie blue
T1 sequence: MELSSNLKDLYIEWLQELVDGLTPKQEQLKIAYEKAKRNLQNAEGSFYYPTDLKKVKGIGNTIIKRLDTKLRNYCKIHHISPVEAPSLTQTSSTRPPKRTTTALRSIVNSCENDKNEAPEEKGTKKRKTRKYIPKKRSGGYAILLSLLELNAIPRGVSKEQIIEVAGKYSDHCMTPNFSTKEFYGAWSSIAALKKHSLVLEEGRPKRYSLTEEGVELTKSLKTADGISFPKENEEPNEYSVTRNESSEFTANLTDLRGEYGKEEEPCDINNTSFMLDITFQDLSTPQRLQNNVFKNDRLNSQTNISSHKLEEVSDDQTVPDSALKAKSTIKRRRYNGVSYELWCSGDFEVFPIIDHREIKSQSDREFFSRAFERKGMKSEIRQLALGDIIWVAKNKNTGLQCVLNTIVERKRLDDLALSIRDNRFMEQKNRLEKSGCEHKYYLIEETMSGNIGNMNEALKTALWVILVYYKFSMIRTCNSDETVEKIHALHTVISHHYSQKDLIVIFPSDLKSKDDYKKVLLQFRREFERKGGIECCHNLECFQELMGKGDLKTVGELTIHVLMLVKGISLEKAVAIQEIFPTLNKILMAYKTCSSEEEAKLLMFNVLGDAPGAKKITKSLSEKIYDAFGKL

[2] = target: T2, Mus81_(Δ21–22) of Mus81_(Δ21–22)–Mms4_(Δ40N) (S. cerevisiae) (UniProt Q04149); assay: as above
T2 sequence: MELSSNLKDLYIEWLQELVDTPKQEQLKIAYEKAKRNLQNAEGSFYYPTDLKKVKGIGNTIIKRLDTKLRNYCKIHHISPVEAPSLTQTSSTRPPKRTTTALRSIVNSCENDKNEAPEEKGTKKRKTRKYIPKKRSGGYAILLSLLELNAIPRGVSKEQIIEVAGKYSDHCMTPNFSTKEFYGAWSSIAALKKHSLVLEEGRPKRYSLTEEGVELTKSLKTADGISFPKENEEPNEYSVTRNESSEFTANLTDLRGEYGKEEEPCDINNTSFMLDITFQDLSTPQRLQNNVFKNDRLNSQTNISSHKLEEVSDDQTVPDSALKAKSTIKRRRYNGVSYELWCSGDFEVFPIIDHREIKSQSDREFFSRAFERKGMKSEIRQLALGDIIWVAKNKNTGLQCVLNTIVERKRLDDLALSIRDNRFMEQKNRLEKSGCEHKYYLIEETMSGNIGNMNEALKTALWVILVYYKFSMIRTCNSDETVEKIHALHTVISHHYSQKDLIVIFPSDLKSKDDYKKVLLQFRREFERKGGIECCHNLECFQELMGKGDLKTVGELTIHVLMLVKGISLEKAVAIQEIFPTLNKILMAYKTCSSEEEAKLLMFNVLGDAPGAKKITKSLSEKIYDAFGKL

[3] = target: T3, Mus81_(Δ21–26) of Mus81_(Δ21–26)–Mms4_(Δ40N) (S. cerevisiae) (UniProt Q04149); assay: as above
T3 sequence: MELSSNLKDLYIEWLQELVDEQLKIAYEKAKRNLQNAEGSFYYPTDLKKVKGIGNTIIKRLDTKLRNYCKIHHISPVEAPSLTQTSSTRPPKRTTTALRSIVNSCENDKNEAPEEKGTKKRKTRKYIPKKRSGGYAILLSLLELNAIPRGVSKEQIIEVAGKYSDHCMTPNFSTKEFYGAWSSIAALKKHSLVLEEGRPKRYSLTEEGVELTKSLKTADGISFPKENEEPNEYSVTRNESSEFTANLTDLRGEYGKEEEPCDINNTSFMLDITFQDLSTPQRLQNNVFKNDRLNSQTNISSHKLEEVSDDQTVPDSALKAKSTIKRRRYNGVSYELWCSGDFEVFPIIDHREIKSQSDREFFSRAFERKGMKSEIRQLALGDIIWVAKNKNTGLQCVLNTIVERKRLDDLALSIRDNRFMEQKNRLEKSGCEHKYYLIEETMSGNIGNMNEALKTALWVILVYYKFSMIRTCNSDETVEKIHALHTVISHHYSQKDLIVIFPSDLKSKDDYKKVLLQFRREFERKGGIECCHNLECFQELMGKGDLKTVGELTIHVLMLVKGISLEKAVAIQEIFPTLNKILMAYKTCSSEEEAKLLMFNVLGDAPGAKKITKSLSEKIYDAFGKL

[4] = target: T4, Mus81_(Δ21–24) of Mus81_(Δ21–24)–Mms4_(Δ40N) (S. cerevisiae) (UniProt Q04149); assay: as above
T4 sequence: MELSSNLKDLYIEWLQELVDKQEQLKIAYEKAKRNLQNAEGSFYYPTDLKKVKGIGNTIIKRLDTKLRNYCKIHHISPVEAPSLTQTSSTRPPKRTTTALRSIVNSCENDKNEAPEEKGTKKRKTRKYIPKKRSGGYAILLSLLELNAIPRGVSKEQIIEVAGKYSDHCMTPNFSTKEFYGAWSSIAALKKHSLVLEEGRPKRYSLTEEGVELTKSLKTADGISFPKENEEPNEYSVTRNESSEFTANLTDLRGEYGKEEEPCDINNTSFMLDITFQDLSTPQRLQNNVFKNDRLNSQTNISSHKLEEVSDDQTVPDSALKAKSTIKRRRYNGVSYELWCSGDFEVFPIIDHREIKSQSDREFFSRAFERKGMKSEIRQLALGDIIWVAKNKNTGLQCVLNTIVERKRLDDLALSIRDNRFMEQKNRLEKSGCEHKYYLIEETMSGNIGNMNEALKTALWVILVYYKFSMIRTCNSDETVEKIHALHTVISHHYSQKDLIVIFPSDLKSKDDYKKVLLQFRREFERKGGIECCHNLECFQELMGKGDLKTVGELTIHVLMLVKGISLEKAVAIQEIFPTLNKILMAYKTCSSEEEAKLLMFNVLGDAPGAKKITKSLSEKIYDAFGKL

[5] = target: T5, Mus81_(Δ120N) (the mutant Mus81 subunit devoid of the N-terminal 120 aa residues) (S. cerevisiae) (UniProt Q04149); assay: as above
T5 sequence: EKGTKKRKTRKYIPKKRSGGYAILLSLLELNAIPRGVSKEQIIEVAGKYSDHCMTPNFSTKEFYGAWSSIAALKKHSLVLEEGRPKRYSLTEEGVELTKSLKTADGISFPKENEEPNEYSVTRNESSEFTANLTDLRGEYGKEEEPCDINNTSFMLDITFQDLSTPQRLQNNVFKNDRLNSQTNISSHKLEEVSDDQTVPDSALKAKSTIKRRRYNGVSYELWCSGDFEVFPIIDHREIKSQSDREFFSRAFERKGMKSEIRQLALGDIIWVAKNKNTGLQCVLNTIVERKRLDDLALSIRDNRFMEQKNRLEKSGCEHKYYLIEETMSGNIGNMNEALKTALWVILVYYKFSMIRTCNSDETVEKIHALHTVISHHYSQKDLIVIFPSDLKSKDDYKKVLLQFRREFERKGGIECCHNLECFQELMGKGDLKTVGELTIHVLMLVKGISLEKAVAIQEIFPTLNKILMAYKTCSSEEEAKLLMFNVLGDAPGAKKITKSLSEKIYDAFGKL

[6] = target: T6, Mus81_(Δ120N) of the Mus81_(Δ120N)–Mms4 complex immunoprecipitated from cells (S. cerevisiae) (UniProt Q04149); assay: co-IP; immunoprecipitation with anti-FLAG antibodies from extracts of the same number of cells (Supplementary Figure S3A)
T6 sequence: T5 sequence

[7] = target: T7, Mus81 of the wild-type Mus81–Mms4 complex immunoprecipitated from cells (S. cerevisiae) (UniProt Q04149); assay: as above
T7 sequence: T1 sequence

[8] = target: T1, Mus81-6XHis (full-length Mus81 subunit) (S. cerevisiae); assay: co-expression and yield of the complex; truncated Mms4 co-expressed with Mus81 in E. coli; data not shown

binding [1]: binds | binding [2]: binds | binding [3]: binds | binding [4]: binds | binding [5]: binds
B1: Mms4_(Δ40N) (domain or fragment, budding yeast, UniProt P38257 41-691, looked up)
chain: ECKRAHVSSAEMIPSSPQRKSVSNDVENVDLNKSIELSAPFFQDISISKLDDFSTTVNSIIDSSLRNENNAKGNAKKLLDDLISDEWSADLESSGKKHNKSQYNLRDIAEKWGVQSLKNPEPIAVDCEYKTQGIGKTNSDISDSPKSQIGAADILFDFPLSPVKHENPTEEKHNSIANENSSPDNSLKPAGKQNHGEDGTSMAKRVYNKGEDEQEHLPKGKKRTIALSRTLINSTKLPDTVELNLSKFLDSSDSITTDVLSTPAKGSNIVRTGSQPIFSNANCFQEAKRSKTLTAEDPKCTKNTAREVSQLENYIAYGQYYTREDSKNKIRHLLKENKNAFKRVNQIYRDNIKARSQMIIEFSPSLLQLFKKGDSDLQQQLAPAVVQSSYNDSMPLLRFLRKCDSIYDFSNDFYYPCDPKIVEENVLILYYDAQEFFEQYTSQKKELYRKIRFFSKNGKHVILILSDINKLKRAIFQLENEKYKARVEQRLSGTEEALRPRSKKSSQVGKLGIKKFDLEQRLRFIDREWHVKIHTVNSHMEFINSLPNLVSLIGKQRMDPAIRYMKYAHLNVKSAQDSTETLKKTFHQIGRMPEMKANNVVSLYPSFQSLLEDIEKGRLQSDNEGKYLMTEAVEKRLYKLFTCTDPNDTIE

binding [6]: binds | binding [7]: binds
B2: Mms4 of the complexes immunoprecipitated from cells (protein, UniProt P38257 1-691)
chain: MSQIVDFVEDKDSRNDASIQIIDGPSNVEIIALSESMDQDECKRAHVSSAEMIPSSPQRKSVSNDVENVDLNKSIELSAPFFQDISISKLDDFSTTVNSIIDSSLRNENNAKGNAKKLLDDLISDEWSADLESSGKKHNKSQYNLRDIAEKWGVQSLKNPEPIAVDCEYKTQGIGKTNSDISDSPKSQIGAADILFDFPLSPVKHENPTEEKHNSIANENSSPDNSLKPAGKQNHGEDGTSMAKRVYNKGEDEQEHLPKGKKRTIALSRTLINSTKLPDTVELNLSKFLDSSDSITTDVLSTPAKGSNIVRTGSQPIFSNANCFQEAKRSKTLTAEDPKCTKNTAREVSQLENYIAYGQYYTREDSKNKIRHLLKENKNAFKRVNQIYRDNIKARSQMIIEFSPSLLQLFKKGDSDLQQQLAPAVVQSSYNDSMPLLRFLRKCDSIYDFSNDFYYPCDPKIVEENVLILYYDAQEFFEQYTSQKKELYRKIRFFSKNGKHVILILSDINKLKRAIFQLENEKYKARVEQRLSGTEEALRPRSKKSSQVGKLGIKKFDLEQRLRFIDREWHVKIHTVNSHMEFINSLPNLVSLIGKQRMDPAIRYMKYAHLNVKSAQDSTETLKKTFHQIGRMPEMKANNVVSLYPSFQSLLEDIEKGRLQSDNEGKYLMTEAVEKRLYKLFTCTDPNDTIE

binding [8]: binds
B3: Mms4_(Δ80N) (domain or fragment, UniProt P38257 81-691)
chain: FFQDISISKLDDFSTTVNSIIDSSLRNENNAKGNAKKLLDDLISDEWSADLESSGKKHNKSQYNLRDIAEKWGVQSLKNPEPIAVDCEYKTQGIGKTNSDISDSPKSQIGAADILFDFPLSPVKHENPTEEKHNSIANENSSPDNSLKPAGKQNHGEDGTSMAKRVYNKGEDEQEHLPKGKKRTIALSRTLINSTKLPDTVELNLSKFLDSSDSITTDVLSTPAKGSNIVRTGSQPIFSNANCFQEAKRSKTLTAEDPKCTKNTAREVSQLENYIAYGQYYTREDSKNKIRHLLKENKNAFKRVNQIYRDNIKARSQMIIEFSPSLLQLFKKGDSDLQQQLAPAVVQSSYNDSMPLLRFLRKCDSIYDFSNDFYYPCDPKIVEENVLILYYDAQEFFEQYTSQKKELYRKIRFFSKNGKHVILILSDINKLKRAIFQLENEKYKARVEQRLSGTEEALRPRSKKSSQVGKLGIKKFDLEQRLRFIDREWHVKIHTVNSHMEFINSLPNLVSLIGKQRMDPAIRYMKYAHLNVKSAQDSTETLKKTFHQIGRMPEMKANNVVSLYPSFQSLLEDIEKGRLQSDNEGKYLMTEAVEKRLYKLFTCTDPNDTIE
